Drawing on publication PMC1097723, this text covers binding for two substances.

Results are given in words; binding and its absence hold for the method and conditions named. For some of these results: In cells and extracts the contact can be indirect. Some results given as binding are weak or reduced against the parent protein; the word gives no strength. Tags and fused reporters may be left off the sequences shown.

The target of experiment [1] is T1, YFP-AIDA-1a (UniProt Q7Z6G8).
T1 sequence: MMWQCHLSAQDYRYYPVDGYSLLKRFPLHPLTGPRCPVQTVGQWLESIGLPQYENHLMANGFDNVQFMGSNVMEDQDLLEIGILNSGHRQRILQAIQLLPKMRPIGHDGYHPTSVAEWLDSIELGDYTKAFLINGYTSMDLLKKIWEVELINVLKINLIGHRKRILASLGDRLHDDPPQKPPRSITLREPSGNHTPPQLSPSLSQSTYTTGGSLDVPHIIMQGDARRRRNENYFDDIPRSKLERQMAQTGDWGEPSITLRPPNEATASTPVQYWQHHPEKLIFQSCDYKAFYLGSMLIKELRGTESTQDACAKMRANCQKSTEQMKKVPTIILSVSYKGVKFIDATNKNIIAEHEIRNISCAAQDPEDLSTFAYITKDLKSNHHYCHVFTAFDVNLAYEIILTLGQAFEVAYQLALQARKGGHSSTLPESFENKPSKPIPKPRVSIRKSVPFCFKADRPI
The experiment can be described thus: co-IP; lysate of HeLa cells transfected with GFP, GFP-AIDA-1c or YFP-AIDA-1a; immunoprecipitation with anti-GFP antibodies, Western blotting with anti-coilin; modified RIPA buffer. (A western blot detects proteins with antibodies after separation by electrophoresis.)

Experiment [2] deals with T2, GFP-AIDA-1c (human) (UniProt Q7Z6G8).
T2 sequence: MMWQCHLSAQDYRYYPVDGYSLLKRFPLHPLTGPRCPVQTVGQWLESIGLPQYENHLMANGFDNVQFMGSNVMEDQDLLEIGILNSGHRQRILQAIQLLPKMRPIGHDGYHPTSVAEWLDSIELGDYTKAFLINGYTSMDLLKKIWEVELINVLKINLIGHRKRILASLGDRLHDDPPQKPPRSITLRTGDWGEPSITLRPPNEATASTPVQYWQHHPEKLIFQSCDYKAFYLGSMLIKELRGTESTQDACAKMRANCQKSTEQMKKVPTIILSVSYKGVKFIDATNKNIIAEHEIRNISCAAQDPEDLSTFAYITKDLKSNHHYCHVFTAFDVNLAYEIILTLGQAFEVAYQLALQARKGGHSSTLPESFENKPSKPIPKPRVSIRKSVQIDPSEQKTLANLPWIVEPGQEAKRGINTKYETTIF
The experiment is described as above.

In experiment [3] the target is T3, GST-AIDA-1c (human) (UniProt Q7Z6G8).
T3 sequence: T2 sequence
The experiment can be described thus: pull-down; purified coilin incubated with GST-AIDA-1c on beads in mRIPA (150 mM NaCl) plus 2 mM DTT, 1 hour at 4°C; Western blotting with anti-coilin; both purified.

Experiment [4] has as its target T3, GST-AIDA-1c (human). Description: condition: only with increasing NaCl concentrations in the binding buffer; pull-down; as a6 but with additional NaCl in the binding buffer (increasing concentrations, lanes 3–5 of Figure 4B); both purified.

“coilin, endogenous (from UniProt P38432 1-576)”: the binding result in experiment [1] and in experiment [2] was “binds” throughout.

On to “soluble full-length coilin, purified (from UniProt P38432 1-576)”, for which the binding result in experiment [3] is reported as “binds weakly”; in experiment [4], “no binding”.
